For one substance, binding results are on record in paper PMC7495420.

Chains of the proteins cited; added tags and fusions are not shown.
UniProt Q92766: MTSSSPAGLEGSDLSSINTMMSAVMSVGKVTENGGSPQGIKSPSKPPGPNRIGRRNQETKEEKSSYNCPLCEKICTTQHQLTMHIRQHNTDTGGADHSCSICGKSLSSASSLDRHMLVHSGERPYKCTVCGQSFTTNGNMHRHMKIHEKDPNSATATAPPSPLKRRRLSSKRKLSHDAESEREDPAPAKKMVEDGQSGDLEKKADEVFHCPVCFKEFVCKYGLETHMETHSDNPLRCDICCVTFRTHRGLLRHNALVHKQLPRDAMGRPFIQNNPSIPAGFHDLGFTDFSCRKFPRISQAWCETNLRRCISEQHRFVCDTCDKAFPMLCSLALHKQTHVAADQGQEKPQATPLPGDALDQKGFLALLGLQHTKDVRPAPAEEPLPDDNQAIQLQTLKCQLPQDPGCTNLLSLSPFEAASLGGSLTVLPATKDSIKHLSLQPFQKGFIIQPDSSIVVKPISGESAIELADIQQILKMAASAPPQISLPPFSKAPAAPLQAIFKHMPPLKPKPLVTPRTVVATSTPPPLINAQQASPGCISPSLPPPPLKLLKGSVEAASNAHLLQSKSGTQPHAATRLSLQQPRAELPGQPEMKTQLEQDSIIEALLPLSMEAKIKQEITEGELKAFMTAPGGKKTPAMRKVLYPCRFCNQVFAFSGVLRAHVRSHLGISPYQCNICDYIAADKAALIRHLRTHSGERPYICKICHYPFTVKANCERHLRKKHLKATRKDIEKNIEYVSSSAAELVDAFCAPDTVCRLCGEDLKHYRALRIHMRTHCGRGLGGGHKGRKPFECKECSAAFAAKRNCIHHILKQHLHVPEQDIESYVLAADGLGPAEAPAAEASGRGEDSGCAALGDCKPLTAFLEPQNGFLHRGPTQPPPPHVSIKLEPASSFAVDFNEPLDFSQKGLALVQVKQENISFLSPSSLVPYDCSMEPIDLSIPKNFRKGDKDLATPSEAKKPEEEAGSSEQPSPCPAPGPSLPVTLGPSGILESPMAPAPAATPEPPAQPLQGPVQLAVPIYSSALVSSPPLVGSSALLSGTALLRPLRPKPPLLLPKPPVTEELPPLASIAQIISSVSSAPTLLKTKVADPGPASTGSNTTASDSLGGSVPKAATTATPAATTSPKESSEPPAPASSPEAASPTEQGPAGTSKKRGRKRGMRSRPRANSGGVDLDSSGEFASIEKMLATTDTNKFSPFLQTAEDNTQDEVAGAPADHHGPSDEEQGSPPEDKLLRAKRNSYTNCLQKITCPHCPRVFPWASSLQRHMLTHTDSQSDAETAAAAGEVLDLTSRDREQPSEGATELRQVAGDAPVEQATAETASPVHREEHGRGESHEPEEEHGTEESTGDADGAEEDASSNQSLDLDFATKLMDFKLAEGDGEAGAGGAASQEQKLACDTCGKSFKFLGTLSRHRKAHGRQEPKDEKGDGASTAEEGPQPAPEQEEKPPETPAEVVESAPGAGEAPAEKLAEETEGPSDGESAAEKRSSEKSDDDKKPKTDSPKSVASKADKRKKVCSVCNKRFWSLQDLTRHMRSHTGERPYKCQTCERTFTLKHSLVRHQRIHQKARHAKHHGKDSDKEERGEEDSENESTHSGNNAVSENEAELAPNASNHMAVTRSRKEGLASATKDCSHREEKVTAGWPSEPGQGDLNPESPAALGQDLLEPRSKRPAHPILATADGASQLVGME
UniProt Q13547: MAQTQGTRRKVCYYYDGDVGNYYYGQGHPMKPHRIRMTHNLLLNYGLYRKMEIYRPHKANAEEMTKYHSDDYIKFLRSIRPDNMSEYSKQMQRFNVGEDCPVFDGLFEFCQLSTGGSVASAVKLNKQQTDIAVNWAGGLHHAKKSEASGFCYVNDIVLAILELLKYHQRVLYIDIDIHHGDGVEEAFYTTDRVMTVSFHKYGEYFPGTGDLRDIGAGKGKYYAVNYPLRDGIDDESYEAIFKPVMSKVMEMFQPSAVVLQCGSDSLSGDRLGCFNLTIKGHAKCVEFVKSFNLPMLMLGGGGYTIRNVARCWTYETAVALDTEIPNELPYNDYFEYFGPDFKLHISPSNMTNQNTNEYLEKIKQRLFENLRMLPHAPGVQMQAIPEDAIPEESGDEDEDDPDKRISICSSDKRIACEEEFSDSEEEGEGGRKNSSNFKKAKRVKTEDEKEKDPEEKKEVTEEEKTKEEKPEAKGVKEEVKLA

The target of this assay is FLAG-BirA-RREB1 (RAS-responsive element binding protein-1) (UniProt Q92766). Briefly: proximity labelling; BioID with FLAG-BirA-RREB1 as bait in HEK293-TREx flp-in cells; 1 μg/ml tetracycline and 50 μM biotin for 24 h; RIPA lysis, Streptavidin-Sepharose capture, mass spectrometry; 1% FDR.

These are yes or no findings as the source states them, for the method shown. Binding seen in cells or lysates may run through a third protein. These calls come from enrichment with a bait or labelling near it, and not all partners need be listed.

In the case of “endogenous HDAC1 (from UniProt Q13547 1-482)”, the binding result is listed as “binds”.
